Experimental data from the supplement of paper PMC4635364.
Where a name gives a salt, the structure may show the parent alone. The list shows a part of the results. Repeats in this data set agree poorly, so a single value says little.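 Cells: ReNCell VM human fetal ventral-midbrain neural progenitors, differentiated mitogen-free. Blinded raters compared doublecortin-stained (early neurons) or tyrosine hydroxylase-stained (dopaminergic neurons) images with untreated wells, where 0 means no change. After repeats and both raters were averaged, compounds scoring 2 or above became hits for retesting.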

Legend:
ReNCell VM [1] = experiment: neuronal differentiation score (DCX+ cell fraction vs untreated, manual image score) (score (-3 to 3)); higher = more neuronal differentiation; conditions: 2 uM, 2 weeks
ReNCell VM [2] = experiment: dopaminergic neuron differentiation score (TH+ cell fraction vs untreated, manual image score) (score (0 to 3)); higher = more TH+ dopaminergic neuron differentiation; conditions: 2 uM, 4 weeks, BDNF 10 ng/ml + GDNF 10 ng/ml

NC(=O)c1cnccn1 [Pyrazinecarboxamide]
neuronal differentiation score (ReNCell VM [1]; library: LOPAC): inactive: -1
dopaminergic neuron differentiation score (ReNCell VM [2]; library: LOPAC): inactive: 0

CN(C)CCCN1c2ccccc2Sc2ccc(C(F)(F)F)cc21
neuronal differentiation score (ReNCell VM [1]; library: Spectrum): inactive: 0
dopaminergic neuron differentiation score (ReNCell VM [2]; library: Spectrum): inactive: 0

Cc1cc(O)c2c(c1)C(=O)c1cccc(O)c1C2=O [1,8-dihydroxy-3-methylanthraquinone]
neuronal differentiation score (ReNCell VM [1]; library: Natural): inactive: 0
dopaminergic neuron differentiation score (ReNCell VM [2]; library: Natural): inactive: 0

CN1CCCN=C1/C=C/c1cccc(O)c1 [Oxantel pamoate]
neuronal differentiation score (ReNCell VM [1]; library: Prestwick): inactive: 0
dopaminergic neuron differentiation score (ReNCell VM [2]; library: Prestwick): inactive: 0

COc1cccc2c1[C@@H]1CN(CCCCn3c(=O)[nH]c4c(sc5ncc(-c6ccccc6)nc54)c3=O)C[C@@H]1CO2 [Fiduxosin hydrochloride]
neuronal differentiation score (ReNCell VM [1]; library: LOPAC): inactive: 0
dopaminergic neuron differentiation score (ReNCell VM [2]; library: LOPAC): inactive: 0

O=NN(CCCl)C(=O)NC1CCCCC1
neuronal differentiation score (ReNCell VM [1]; library: Spectrum): inactive: 0
dopaminergic neuron differentiation score (ReNCell VM [2]; library: Spectrum): inactive: 0

N[C@@H](Cc1cc(I)c(Oc2cc(I)c(O)c(I)c2)c(I)c1)C(=O)O
neuronal differentiation score (ReNCell VM [1]; library: Spectrum): inactive: 0
dopaminergic neuron differentiation score (ReNCell VM [2]; library: Spectrum): inactive: 0

CCCC1O[C@@H]2C[C@H]3[C@@H]4CCC5=CC(=O)C=C[C@]5(C)[C@H]4[C@@H](O)C[C@]3(C)[C@]2(C(=O)CO)O1 (some centres undefined)
neuronal differentiation score (ReNCell VM [1]; library: Spectrum): inactive: 1
dopaminergic neuron differentiation score (ReNCell VM [2]; library: Spectrum): inactive: 0

O=c1c(O)c(-c2ccccc2)oc2ccccc12
neuronal differentiation score (ReNCell VM [1]; library: Spectrum): inactive: 0
dopaminergic neuron differentiation score (ReNCell VM [2]; library: Spectrum): inactive: 0

CC(CCCCC(=O)Nc1ccc(C(F)(F)F)cc1)NCCc1cnc[nH]1 (centres undefined) [HTMT dimaleate]
neuronal differentiation score (ReNCell VM [1]; library: Tocriscreen): inactive: 0
dopaminergic neuron differentiation score (ReNCell VM [2]; library: Tocriscreen): inactive: 0

Nc1ccc(C(=O)O)c(O)c1 [4-aminosalicylic acid]
neuronal differentiation score (ReNCell VM [1]; library: Prestwick): inactive: 0
dopaminergic neuron differentiation score (ReNCell VM [2]; library: Prestwick): inactive: 0

COc1ccc(CN(CCN(C)C)c2ncccn2)cc1
neuronal differentiation score (ReNCell VM [1]; library: Spectrum): inactive: 0
dopaminergic neuron differentiation score (ReNCell VM [2]; library: Spectrum): inactive: 0

O=C(O)/C(=C\c1c(C(=O)O)[nH]c2cc(Cl)cc(Cl)c12)c1ccccc1
neuronal differentiation score (ReNCell VM [1]; library: LOPAC): inactive: 0
dopaminergic neuron differentiation score (ReNCell VM [2]; library: LOPAC): inactive: 0

Cc1cc(/C(=C/Nc2ccc(Cl)cc2)C(=O)Nc2ccc(Cl)cc2)on1
neuronal differentiation score (ReNCell VM [1]; library: Tocriscreen): inactive: 0
dopaminergic neuron differentiation score (ReNCell VM [2]; library: Tocriscreen): inactive: 0

C[C@H]1[C@H]2CC[C@H]3[C@@H]4CC=C5C[C@@H](N(C)C)CC[C@]5(C)[C@H]4CC[C@]23CN1C
neuronal differentiation score (ReNCell VM [1]; library: Spectrum): inactive: 0
dopaminergic neuron differentiation score (ReNCell VM [2]; library: Spectrum): inactive: 0

COc1cc([S+](C)[O-])ccc1-c1nc2cccnc2[nH]1 (centres undefined)
neuronal differentiation score (ReNCell VM [1]; library: Spectrum): inactive: 0
dopaminergic neuron differentiation score (ReNCell VM [2]; library: Spectrum): inactive: 0

CN(C)CCC=C1c2ccccc2CCc2ccccc21
neuronal differentiation score (ReNCell VM [1]; library: Spectrum): inactive: 0
dopaminergic neuron differentiation score (ReNCell VM [2]; library: Spectrum): inactive: 0
